Experimental data: the supplement of paper PMC11732987, “Enantioselective OTUD7B fragment discovery through chemoproteomics screening and high-throughput optimisation” (Communications Chemistry, 2025)
The list shows a part of the results. The data scatter; read single values as rough.

Sequences of proteins named here, by UniProt entry; tags and fusion partners are left off. A change or cut given only in a name is not applied to a line headed by its entry. Residues count along the entry.
UniProt O15067, 508-527: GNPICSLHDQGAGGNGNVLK
UniProt Q8N8D1: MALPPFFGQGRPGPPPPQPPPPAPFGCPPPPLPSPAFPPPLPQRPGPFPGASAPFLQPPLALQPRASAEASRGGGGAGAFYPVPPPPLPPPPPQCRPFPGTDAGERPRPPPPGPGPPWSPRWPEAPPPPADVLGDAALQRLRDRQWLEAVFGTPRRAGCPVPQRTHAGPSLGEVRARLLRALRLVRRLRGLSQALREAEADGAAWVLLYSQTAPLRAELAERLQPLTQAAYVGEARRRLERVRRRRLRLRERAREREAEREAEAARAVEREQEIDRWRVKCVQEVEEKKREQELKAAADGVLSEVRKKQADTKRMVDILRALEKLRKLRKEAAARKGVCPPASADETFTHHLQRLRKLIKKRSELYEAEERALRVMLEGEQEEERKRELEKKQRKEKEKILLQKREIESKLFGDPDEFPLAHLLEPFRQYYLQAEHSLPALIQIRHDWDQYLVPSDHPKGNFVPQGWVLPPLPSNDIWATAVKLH
UniProt Q9UGN5: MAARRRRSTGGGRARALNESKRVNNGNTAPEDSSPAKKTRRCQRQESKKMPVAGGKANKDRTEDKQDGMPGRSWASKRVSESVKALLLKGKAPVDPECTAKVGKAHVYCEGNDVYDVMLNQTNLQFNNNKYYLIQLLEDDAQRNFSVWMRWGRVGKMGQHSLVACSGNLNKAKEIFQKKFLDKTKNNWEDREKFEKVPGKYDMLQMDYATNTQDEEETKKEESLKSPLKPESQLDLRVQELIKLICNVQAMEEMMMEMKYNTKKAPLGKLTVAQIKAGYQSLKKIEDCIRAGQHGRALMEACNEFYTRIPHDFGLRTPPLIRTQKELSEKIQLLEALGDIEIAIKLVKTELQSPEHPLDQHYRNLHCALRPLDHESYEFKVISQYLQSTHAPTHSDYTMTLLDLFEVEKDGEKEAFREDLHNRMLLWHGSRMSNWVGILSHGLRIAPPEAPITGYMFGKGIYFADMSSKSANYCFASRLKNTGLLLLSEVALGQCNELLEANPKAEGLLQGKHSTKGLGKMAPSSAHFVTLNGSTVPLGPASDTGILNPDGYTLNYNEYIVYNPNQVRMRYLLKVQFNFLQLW
UniProt Q15154: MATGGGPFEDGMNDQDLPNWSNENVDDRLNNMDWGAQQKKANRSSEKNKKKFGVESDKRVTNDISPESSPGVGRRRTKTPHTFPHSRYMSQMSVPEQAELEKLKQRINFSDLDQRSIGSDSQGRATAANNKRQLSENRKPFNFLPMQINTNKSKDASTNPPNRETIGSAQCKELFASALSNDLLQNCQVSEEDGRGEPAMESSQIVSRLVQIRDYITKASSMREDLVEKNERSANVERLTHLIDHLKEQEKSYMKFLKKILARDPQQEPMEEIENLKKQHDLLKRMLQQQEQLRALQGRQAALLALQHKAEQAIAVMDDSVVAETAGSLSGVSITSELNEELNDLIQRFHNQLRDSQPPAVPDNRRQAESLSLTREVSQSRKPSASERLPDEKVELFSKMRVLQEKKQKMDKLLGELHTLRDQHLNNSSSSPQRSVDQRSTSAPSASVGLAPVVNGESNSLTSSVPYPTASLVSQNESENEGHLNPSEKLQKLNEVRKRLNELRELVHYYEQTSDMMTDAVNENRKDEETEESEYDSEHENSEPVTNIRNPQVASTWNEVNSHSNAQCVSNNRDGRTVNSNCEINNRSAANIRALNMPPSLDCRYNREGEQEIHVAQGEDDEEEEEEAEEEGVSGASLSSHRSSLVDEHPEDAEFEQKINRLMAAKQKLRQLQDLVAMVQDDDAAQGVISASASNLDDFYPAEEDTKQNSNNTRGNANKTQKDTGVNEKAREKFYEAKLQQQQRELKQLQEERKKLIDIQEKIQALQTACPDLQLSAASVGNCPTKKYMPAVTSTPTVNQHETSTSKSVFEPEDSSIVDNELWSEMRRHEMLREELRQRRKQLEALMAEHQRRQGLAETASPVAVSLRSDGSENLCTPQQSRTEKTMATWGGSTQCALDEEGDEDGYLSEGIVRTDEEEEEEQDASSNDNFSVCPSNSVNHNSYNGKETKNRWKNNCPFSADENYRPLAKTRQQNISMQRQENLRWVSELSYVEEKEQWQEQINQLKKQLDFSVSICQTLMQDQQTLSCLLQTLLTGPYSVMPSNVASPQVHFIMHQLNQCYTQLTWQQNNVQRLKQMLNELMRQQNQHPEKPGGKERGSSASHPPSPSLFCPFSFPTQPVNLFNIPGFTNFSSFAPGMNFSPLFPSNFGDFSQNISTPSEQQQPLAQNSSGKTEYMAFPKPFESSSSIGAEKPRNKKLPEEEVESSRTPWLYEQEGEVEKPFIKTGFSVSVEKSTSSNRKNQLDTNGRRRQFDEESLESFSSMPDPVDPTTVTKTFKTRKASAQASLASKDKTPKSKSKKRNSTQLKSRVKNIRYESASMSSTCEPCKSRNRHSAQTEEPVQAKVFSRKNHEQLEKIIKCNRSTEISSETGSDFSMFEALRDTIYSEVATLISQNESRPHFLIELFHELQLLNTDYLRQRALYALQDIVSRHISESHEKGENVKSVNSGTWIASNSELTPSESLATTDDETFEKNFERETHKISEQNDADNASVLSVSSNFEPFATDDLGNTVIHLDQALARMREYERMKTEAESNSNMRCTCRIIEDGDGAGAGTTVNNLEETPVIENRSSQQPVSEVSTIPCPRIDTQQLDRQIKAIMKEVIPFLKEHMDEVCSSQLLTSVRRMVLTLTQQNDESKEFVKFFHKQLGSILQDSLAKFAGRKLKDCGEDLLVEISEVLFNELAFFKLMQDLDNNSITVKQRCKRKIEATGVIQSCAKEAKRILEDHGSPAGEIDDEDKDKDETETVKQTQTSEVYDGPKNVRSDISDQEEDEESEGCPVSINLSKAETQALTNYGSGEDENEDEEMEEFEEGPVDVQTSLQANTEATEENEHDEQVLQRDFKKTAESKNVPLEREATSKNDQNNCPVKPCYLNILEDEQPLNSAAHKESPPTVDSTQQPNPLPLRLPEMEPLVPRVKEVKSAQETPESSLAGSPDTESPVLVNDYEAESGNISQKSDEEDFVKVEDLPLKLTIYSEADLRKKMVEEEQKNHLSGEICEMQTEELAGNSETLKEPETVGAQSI
UniProt Q9H4Z3: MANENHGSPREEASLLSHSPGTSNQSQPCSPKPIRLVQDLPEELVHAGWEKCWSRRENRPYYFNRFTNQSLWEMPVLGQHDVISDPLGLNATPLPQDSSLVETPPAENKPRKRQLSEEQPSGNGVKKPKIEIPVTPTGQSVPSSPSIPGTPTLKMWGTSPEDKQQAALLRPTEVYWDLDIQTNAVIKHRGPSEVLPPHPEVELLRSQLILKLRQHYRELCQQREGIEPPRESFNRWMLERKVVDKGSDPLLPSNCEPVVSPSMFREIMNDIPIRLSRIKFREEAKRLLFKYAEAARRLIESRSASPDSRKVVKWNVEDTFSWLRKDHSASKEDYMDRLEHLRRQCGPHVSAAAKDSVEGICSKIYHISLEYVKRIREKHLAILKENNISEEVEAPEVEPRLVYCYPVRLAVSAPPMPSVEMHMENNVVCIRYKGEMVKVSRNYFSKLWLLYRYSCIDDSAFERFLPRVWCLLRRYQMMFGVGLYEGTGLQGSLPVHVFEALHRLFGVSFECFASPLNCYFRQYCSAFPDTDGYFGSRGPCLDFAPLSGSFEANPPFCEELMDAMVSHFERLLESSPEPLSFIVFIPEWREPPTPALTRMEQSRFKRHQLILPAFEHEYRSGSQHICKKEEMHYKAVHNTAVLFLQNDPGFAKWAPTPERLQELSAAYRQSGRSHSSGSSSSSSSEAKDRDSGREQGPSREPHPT
UniProt P35080: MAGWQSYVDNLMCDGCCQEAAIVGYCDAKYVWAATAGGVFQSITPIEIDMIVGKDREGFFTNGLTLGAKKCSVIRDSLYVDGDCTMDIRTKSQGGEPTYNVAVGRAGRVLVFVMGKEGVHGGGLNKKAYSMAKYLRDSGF
UniProt Q96KB5, 102-121: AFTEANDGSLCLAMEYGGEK
UniProt P05165: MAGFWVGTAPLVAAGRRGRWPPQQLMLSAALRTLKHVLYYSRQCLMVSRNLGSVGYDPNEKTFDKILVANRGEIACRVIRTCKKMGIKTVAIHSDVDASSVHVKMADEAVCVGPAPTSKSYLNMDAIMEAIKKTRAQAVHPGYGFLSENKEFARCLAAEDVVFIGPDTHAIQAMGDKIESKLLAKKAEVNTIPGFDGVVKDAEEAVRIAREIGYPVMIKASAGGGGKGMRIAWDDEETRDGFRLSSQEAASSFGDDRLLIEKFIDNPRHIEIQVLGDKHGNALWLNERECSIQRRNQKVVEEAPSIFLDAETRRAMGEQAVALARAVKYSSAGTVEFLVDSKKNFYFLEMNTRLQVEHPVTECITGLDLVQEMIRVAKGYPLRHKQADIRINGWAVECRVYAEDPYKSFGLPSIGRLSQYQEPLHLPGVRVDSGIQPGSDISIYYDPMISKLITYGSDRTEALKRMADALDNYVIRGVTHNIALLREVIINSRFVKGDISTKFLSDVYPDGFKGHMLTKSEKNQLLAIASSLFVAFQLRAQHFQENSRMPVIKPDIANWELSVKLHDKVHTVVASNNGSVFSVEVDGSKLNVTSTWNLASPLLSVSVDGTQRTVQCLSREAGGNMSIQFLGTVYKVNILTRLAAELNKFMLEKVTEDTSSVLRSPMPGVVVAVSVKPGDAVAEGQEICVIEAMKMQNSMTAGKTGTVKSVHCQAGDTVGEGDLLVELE
UniProt Q14690: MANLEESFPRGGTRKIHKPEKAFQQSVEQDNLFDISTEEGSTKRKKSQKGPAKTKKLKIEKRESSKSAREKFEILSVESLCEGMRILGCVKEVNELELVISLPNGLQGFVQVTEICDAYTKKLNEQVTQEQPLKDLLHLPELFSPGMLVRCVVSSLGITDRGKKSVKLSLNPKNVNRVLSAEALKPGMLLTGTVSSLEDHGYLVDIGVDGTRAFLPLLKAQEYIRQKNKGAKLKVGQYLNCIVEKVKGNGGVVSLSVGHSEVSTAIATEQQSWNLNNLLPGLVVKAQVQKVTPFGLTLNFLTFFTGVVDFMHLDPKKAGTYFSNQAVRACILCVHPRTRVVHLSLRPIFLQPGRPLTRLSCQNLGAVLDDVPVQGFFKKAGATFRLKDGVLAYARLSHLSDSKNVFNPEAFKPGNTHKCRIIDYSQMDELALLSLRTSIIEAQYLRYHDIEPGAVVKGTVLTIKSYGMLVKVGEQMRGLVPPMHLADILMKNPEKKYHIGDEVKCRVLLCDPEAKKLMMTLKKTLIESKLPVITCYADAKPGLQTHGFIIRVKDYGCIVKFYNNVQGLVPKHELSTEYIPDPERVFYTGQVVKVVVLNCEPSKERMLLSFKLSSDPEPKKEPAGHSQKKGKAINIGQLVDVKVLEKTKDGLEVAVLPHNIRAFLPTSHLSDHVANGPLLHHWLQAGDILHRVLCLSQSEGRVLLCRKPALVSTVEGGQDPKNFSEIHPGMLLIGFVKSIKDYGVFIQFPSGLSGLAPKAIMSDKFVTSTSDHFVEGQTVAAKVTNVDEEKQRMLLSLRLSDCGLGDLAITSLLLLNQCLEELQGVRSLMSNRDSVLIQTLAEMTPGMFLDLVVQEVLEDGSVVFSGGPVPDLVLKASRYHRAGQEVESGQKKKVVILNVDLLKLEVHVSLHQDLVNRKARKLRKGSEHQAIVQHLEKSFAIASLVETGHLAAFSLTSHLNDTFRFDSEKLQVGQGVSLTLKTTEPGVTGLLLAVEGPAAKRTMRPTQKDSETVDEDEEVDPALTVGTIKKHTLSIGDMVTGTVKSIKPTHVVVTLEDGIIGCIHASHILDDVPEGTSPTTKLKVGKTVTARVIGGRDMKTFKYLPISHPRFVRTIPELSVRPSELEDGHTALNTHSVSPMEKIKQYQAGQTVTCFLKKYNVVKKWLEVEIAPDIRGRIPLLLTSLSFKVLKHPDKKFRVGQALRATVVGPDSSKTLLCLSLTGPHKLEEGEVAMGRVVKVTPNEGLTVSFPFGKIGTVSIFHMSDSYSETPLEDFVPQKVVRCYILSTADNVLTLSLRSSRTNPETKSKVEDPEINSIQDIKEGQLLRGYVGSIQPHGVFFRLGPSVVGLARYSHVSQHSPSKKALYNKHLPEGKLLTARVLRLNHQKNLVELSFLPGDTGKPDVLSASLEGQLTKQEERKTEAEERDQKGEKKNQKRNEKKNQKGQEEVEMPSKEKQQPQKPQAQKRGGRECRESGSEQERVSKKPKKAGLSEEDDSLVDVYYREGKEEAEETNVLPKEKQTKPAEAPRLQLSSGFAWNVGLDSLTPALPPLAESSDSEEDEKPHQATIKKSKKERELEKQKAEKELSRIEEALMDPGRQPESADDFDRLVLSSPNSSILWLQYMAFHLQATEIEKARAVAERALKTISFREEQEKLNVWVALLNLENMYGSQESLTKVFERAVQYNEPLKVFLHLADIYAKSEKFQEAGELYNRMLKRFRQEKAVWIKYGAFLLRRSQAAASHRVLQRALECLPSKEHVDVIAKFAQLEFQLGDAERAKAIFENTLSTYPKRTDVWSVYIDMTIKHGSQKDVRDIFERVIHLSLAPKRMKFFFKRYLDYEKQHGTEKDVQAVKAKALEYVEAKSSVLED

Compound: ClCC(=O)N[C@@H]1CCCc2ccccc12
Assay: log2 mean competition ratio of IA-DTB cysteine labelling (DMSO/compound) (log2 ratio); higher = stronger cysteine engagement by compound
Details: 50 µM; treatment time: 4 h; cell line lysate: HEK293T
Procedure: (§1)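 IA-DTB competitive cysteine chemoproteomics in HEK293T RIPA lysate. Lysates were treated with compound 29 or 30 at 50 or 200 µM for 4 h, then IA-DTB (500 µM, 1 h), trypsin-digested, NeutrAvidin-enriched and analysed by diaPASEF. Competition ratio = intensity DMSO / intensity compound (n=4 treated, n=64 DMSO); binding: mean log2 CR ≥ 1 and p ≤ 0.05 plus QC filters. Target is the cysteine site.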

Row | Target | log2 mean competition ratio
1 | PFAS C512 (UniProt O15067) | 0.253
2 | PDCD7 C159 (UniProt Q8N8D1) | -0.0316
3 | PDCD4 C433 (UniProt Q53EL6) | -0.124
4 | PGM2 C484 (UniProt Q96G03) | 0.243
5 | PARP2 C98 (UniProt Q9UGN5) | -0.252
6 | PFAS C606 (UniProt O15067) | 0.413
7 | OTUD4 C903 (UniProt Q01804) | -0.224

Same assay, conditions: 200 µM; treatment time: 4 h; cell line lysate: HEK293T

Row | Target | log2 mean competition ratio
8 | PFAS C1044 (UniProt O15067) | 0.066
9 | PCBP2 C158 | -0.00554
10 | PDE4DIP C603 | 0.119
11 | PA2G4 C149 (UniProt Q9UQ80) | 0.689
12 | PALB2 C469 (UniProt Q86YC2) | 0.244
13 | PARP16 C52 (UniProt Q8N5Y8) | -0.0822
14 | PDCL C291 (UniProt Q13371) | -0.27
15 | PCM1 C1585 (UniProt Q15154) | 0.0855
16 | PACS2 C831 (UniProt Q86VP3) | 0.0824
17 | PAX6 C52 | 0.0873
18 | PGP C297 (UniProt A6NDG6) | 0.00757
19 | PCIF1 C361 (UniProt Q9H4Z3) | -0.58
20 | PGP C217 (UniProt A6NDG6) | 0.21
21 | PALB2 C162 (UniProt Q86YC2) | 0.0638
22 | PFN2 C84 (UniProt P35080) | -0.277
23 | PGM3 C212 | -0.166
24 | PEX5 C423 | -0.262
25 | PBK C112 (UniProt Q96KB5) | -0.0163
26 | PCK2 C325 (UniProt Q16822) | 0.224

Row | Target | log2 mean competition ratio
27 | PCBP4 C58 | -0.0151
28 | PDLIM7 C388 (UniProt Q9NR12) | -0.294
29 | PCCA C111 (UniProt P05165) | -0.255
30 | PDP1 C132 (UniProt Q9P0J1) | -0.354
31 | PFAS C1027 (UniProt O15067) | -0.161
32 | PEX7 C5 (UniProt O00628) | -0.322
33 | PGM1 C374 (UniProt P36871) | -0.0719
34 | PHC2 C673 (UniProt Q8IXK0) | 0.034
35 | PCNX1 C142 (UniProt Q96RV3) | 0.294
36 | PDCD7 C281 (UniProt Q8N8D1) | -0.059
37 | PDCD11 C694 (UniProt Q14690) | -0.238
38 | PFAS C512 (UniProt O15067) | 0.229
39 | PDCD7 C159 (UniProt Q8N8D1) | -0.0387
40 | PDCD4 C433 (UniProt Q53EL6) | -0.445
41 | PGM2 C484 (UniProt Q96G03) | 0.0211
42 | PARP2 C98 (UniProt Q9UGN5) | 0.264
43 | PFAS C606 (UniProt O15067) | 0.178
44 | OTUD4 C903 (UniProt Q01804) | -0.232

Compound: ClCC(=O)N[C@H]1CCCc2ccccc12
Assay: as above
Details: 50 µM; treatment time: 4 h; cell line lysate: HEK293T
Procedure: as §1

Row | Target | log2 mean competition ratio
45 | PFAS C1044 (UniProt O15067) | 0.107
46 | PCBP2 C158 | -0.116
47 | PDE4DIP C603 | -0.401
48 | PA2G4 C149 (UniProt Q9UQ80) | 0.197
49 | PALB2 C469 (UniProt Q86YC2) | -0.115
50 | PARP16 C52 (UniProt Q8N5Y8) | -0.025
51 | PDCL C291 (UniProt Q13371) | 0.672
52 | PCM1 C1585 (UniProt Q15154) | 0.227
53 | PACS2 C831 (UniProt Q86VP3) | -0.218
54 | PAX6 C52 | 0.359
55 | PGP C297 (UniProt A6NDG6) | 0.0646
56 | PCIF1 C361 (UniProt Q9H4Z3) | -0.468
57 | PGP C217 (UniProt A6NDG6) | 0.889
58 | PALB2 C162 (UniProt Q86YC2) | -0.479
59 | PFN2 C84 (UniProt P35080) | 0.0668
60 | PGM3 C212 | -0.112
61 | PEX5 C423 | 0.337
62 | PBK C112 (UniProt Q96KB5) | 0.51
63 | PCK2 C325 (UniProt Q16822) | 0.336

Row | Target | log2 mean competition ratio
64 | PCBP4 C58 | -0.365
65 | PDLIM7 C388 (UniProt Q9NR12) | 0.253
66 | PCCA C111 (UniProt P05165) | -0.132
67 | PDP1 C132 (UniProt Q9P0J1) | 0.255
68 | PFAS C1027 (UniProt O15067) | 0.126
69 | PEX7 C5 (UniProt O00628) | 0.177
70 | PGM1 C374 (UniProt P36871) | -0.459
71 | PHC2 C673 (UniProt Q8IXK0) | 0.163
72 | PCNX1 C142 (UniProt Q96RV3) | 0.0449
73 | PDCD7 C281 (UniProt Q8N8D1) | -0.413
74 | PDCD11 C694 (UniProt Q14690) | -0.296
75 | PFAS C512 (UniProt O15067) | -0.437
76 | PDCD7 C159 (UniProt Q8N8D1) | 0.127
77 | PDCD4 C433 (UniProt Q53EL6) | -0.508
78 | PGM2 C484 (UniProt Q96G03) | -0.24
79 | PARP2 C98 (UniProt Q9UGN5) | -0.0913
80 | PFAS C606 (UniProt O15067) | 0.492
81 | OTUD4 C903 (UniProt Q01804) | 0.0775

Same assay, conditions: 200 µM; treatment time: 4 h; cell line lysate: HEK293T

Row | Target | log2 mean competition ratio
82 | PFAS C1044 (UniProt O15067) | 0.0496
83 | PCBP2 C158 | -0.226
84 | PDE4DIP C603 | 0.101
85 | PA2G4 C149 (UniProt Q9UQ80) | 0.169
86 | PALB2 C469 (UniProt Q86YC2) | 0.342
87 | PARP16 C52 (UniProt Q8N5Y8) | -0.0437
88 | PDCL C291 (UniProt Q13371) | -0.282
89 | PCM1 C1585 (UniProt Q15154) | 0.173
90 | PACS2 C831 (UniProt Q86VP3) | 0.376
91 | PAX6 C52 | 0.268
92 | PGP C297 (UniProt A6NDG6) | 0.0586
93 | PCIF1 C361 (UniProt Q9H4Z3) | -0.184
94 | PGP C217 (UniProt A6NDG6) | 0.147
95 | PALB2 C162 (UniProt Q86YC2) | 0.0594
96 | PFN2 C84 (UniProt P35080) | -0.0923
97 | PGM3 C212 | -0.0905
98 | PEX5 C423 | 0.0594
99 | PBK C112 (UniProt Q96KB5) | -0.183
100 | PCK2 C325 (UniProt Q16822) | 0.118

Row | Target | log2 mean competition ratio
101 | PCBP4 C58 | 0.0433
102 | PDLIM7 C388 (UniProt Q9NR12) | -0.175
103 | PCCA C111 (UniProt P05165) | -0.323
104 | PDP1 C132 (UniProt Q9P0J1) | -0.329
105 | PFAS C1027 (UniProt O15067) | -0.0651
106 | PEX7 C5 (UniProt O00628) | 0.039
107 | PGM1 C374 (UniProt P36871) | -0.269
108 | PHC2 C673 (UniProt Q8IXK0) | 0.0118
109 | PCNX1 C142 (UniProt Q96RV3) | 0.059
110 | PDCD7 C281 (UniProt Q8N8D1) | -0.0629
111 | PDCD11 C694 (UniProt Q14690) | -0.184
112 | PFAS C512 (UniProt O15067) | 0.107
113 | PDCD7 C159 (UniProt Q8N8D1) | 0.19
114 | PDCD4 C433 (UniProt Q53EL6) | -0.308
115 | PGM2 C484 (UniProt Q96G03) | -0.273
116 | PARP2 C98 (UniProt Q9UGN5) | 0.246
117 | PFAS C606 (UniProt O15067) | 0.0365
118 | OTUD4 C903 (UniProt Q01804) | -0.0829
